From patent US20130245238A1
No constants are given. Whether binding was seen depends on the method and setting. Some binding calls cover weakened binding; strength is not graded here. For some assays here: Sequences can lack the tags named with a protein. One block for each binder: values may come before it.

Columns and labels:
[1] = biological target: T1, human PXR-GST (Invitrogen) (human) (UniProt O75469); assay: Biacore; GST-PXR captured on anti-GST antibody
T1 sequence (looked up): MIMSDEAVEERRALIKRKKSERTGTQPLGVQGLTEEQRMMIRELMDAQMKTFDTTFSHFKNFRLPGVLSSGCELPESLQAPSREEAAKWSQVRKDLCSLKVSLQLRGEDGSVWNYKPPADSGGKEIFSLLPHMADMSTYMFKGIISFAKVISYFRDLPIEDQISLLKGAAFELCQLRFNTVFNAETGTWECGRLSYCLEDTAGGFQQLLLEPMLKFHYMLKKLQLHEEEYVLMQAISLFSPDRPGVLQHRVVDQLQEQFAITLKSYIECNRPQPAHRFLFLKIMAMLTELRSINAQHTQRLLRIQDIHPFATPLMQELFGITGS

[2] = biological target: T2, biotinylated murine IL-17 (murine) (UniProt Q62386); assay: competitive Alphascreen
T2 sequence (biotinylated (site not stated), looked up): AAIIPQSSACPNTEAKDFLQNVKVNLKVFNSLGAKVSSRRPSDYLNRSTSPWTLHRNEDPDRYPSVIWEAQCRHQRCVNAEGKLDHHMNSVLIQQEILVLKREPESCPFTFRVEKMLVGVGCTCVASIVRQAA

- binding [1]: binds
B1: WS1 binder having the amino acid sequence of SEQ ID NO: 49 (designed binder)
chain: MASTSGVSDVPRDLEVVAATPTSLLISWDAPAVTVHSYYITYQELQHHSVPQGFQVPGSKSTATISGLKPGVAYQIAVYAFTGPGLPPSDAPPIVIYYRTEGSGS

- binding [2]: binds
B2: WS-LI1 binder having the sequence of SEQ ID NO: 46 (designed binder)
chain: MGVSDVPRDLEVVAATPTSLLISWDAPAVTVRYYRITYGEYSSFFQHQGQYYHYIQEFTVPGSKSTATISGLKPGVDYTITVYAVTQHEHSQDSSKPISINYRTEIDKPSQ

- binding [2]: binds
B3: WS-LI1 binder having the sequence of SEQ ID NO: 47 (designed binder)
chain: MGVSDVPRDLEVVAATPTSLLISWDAPAVTVRYYRITYGEFSQFVHSDGEYYQEYQEFTVPGSKSTATISGLKPGVDYTITVYAVTGQYDQDDEPSSKPISINYRTEIDKPSQ

- binding [2]: binds
B4: WS-LI1 binder having the sequence of SEQ ID NO: 45 (designed binder)
chain: MGVSDVPRDLEVVAATPTSLLISWDAPAVTVRYYRITYGEYHAFFASNGKYYFYIQEFTVPGSKSTATISGLKPGVDYTITVYAVTDDTVHHGDSNYHSSKPISINYRTEIDKPSQ

- binding [1]: binds
B5: WS1 binder having the amino acid sequence of SEQ ID NO: 48 (designed binder)
chain: MASTSGVSDVPRDLEVVAATPTSLLISWDAPAVPVSKYVIYYWPGALISSMQAFKVPGSKSTATISGLKPGVLYSIVVDALTGDGQGSYVWDPITITYRTEGSGS
